This passage reports binding results from paper PMC4022373.

Sequences of proteins named here, by UniProt entry; tags and fusion partners are left off. Residues count along the entry.
UniProt P46821, residues 2207-2468: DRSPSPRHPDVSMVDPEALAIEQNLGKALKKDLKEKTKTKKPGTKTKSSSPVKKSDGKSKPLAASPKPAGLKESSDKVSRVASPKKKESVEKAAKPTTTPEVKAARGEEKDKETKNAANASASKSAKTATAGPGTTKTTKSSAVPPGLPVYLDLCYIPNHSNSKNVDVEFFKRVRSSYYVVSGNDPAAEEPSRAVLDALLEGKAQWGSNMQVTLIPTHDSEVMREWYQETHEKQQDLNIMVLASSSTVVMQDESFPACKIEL
UniProt Q5S007, residues 1879-2138: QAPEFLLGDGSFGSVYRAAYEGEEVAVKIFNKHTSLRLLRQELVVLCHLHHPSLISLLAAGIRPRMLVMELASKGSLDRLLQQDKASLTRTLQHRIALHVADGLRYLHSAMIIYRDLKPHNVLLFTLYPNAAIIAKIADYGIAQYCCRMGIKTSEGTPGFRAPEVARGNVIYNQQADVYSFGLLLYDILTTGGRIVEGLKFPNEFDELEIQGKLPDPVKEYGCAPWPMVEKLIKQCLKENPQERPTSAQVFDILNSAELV

No constants are given. Whether binding was seen depends on the method and setting. In cells and extracts the contact can be indirect. Some results given as binding are weak or reduced against the parent protein; the word gives no strength.

For this assay, the target named is LC1-GST (human) (UniProt P46821). The assay can be described thus: pull-down; purified LC1-GST (and GST) added to lysate of LRRK2 kinase myc-transfected SKNSH, incubated at 4°C for 2 hours; detection with anti-myc antibody; only the target purified.

“LRRK2 kinase myc (from UniProt Q5S007 1879-2138) (domain or fragment)”: the binding result is given as “binds”.
